The source of these data is publication PMC3366916, “Characterization of a Conserved Interaction between DNA Glycosylase and ParA in Mycobacterium smegmatis and M. tuberculosis” (PLoS ONE, 2012).

No constants are given. Whether binding was seen depends on the method and setting. Some entries that bind do so weakly or less than the wild type. Where a sequence is shown, tags or fusion partners need not be part of it.

For the assay, the target named is MtParA (Rv3918c), bacterial two-hybrid fusion (M. tuberculosis) (UniProt A5U9P6). Briefly: two-hybrid.

B1: MtTAG (Rv1210), bacterial two-hybrid fusion (enzyme, UniProt L7N613 1-204)
chain: MSGDGLVRCPWAEVRPGPDAQLYRDYHDNEWGRPLYGRVALFERMSLEAFQSGLSWLIILRKRENFRRAFSGFDIDKIARYTDTDVRRLLADDGIVRNRAKIEATIANARAAADLGSSEDLSELLWSFAPPPRPRPVDGSEIPSVSTESKAMSRELKRRGFRFVGPTTAYALMQATGMVDDHIQACWVPTERPFDQPGCPMAAR
On to B1, for which the binding entry is given as “binds”.
